Publication PMC5691768, “Comparison of the Micellar Incorporation and the Intestinal Cell Uptake of Cholecalciferol, 25-Hydroxycholecalciferol and 1-α-Hydroxycholecalciferol” (Nutrients, 2017)

experiment: In vitro biopotency calculated as micellar incorporation × cell uptake; conditions: mean ± SEM

C=C1CC[C@H](O)C/C1=C/C=C1\CCC[C@]2(C)[C@@H]([C@H](C)CCCC(C)(C)O)CC[C@@H]12 [25(OH)D3, 25-hydroxycholecalciferol] and C=C1CC[C@H](O)C/C1=C/C=C1\CCC[C@]2(C)[C@@H]([C@H](C)CCCC(C)C)CC[C@@H]12 [D3, cholecalciferol] are within error of each other in “biopotency (micellar incorporation × cell uptake)” value: 6.67 ± 1.21% for the first, 5.49 ± 0.55% for the second.

For C=C1/C(=C\C=C2/CCC[C@]3(C)[C@@H]([C@H](C)CCCC(C)C)CC[C@@H]23)C[C@@H](O)C[C@@H]1O [1α(OH)D3, 1-α-hydroxycholecalciferol], the “biopotency (micellar incorporation × cell uptake)” value was 13.19 ± 1.38%.
